Measurements published in PMC9949044.
No constants are given. Whether binding was seen depends on the method and setting. Binding seen in cells or lysates may run through a third protein. These calls come from enrichment with a bait or labelling near it, and not all partners need be listed.

Target: T1, un-acetylated N-terminal H2B.Z peptide, biotinylated (Toxoplasma gondii)
T1 sequence (peptide, biotin on the C-terminal lysine, K(Biotin)): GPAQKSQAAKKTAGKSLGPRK
Test: affinity purification with mass spectrometry; biotinylated H2B.Z N-terminal peptides (acetylated or un-acetylated) as bait; nuclear extract (NE-PER kit) of extracellular RH tachyzoites; short SDS-PAGE, in-gel trypsin digestion, LC-MS/MS; two independent pull-downs for each peptide; only the target purified

| Substance | binding |
| --- | --- |
| GCN5-A (enzyme) | binds |
| histone H4 | binds |
